PubChem BioAssay AID1259405 – NCATS | 2018
Here is a random part of about 50,000 reagents. In the full data, about 4,000 (8%) were called active. 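Mouse siRNA library applied to hamster cells; one well for each siRNA.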 Entries without a mark were called inactive. Reagents against one gene are numbered here.

Assay: 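Silenced genes that increase secreted GFP made by CHO cells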 (primary screen)
Cells: Chinese hamster CHO-K1 ovary cells with stable secreted eGFP expression
Reagent: single siRNA against mouse genes, 0.8 pmol siRNA per well (2 µl of 400 nM stock)
Timing: 3 days
Detection: 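Per-well intracellular GFP measured by laser scanning cytometry, plus viability from ATP luminescence, each relative to plate median of non-targeting control wells, in %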
Scale: GFP, % of control: higher = more GFP per well, higher productivity; viability (ATP), % of control: higher = more viable cells (more ATP)
Call rule: 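Called active when intracellular GFP, relative to negative control, is at or above 120%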

Pex7 (GeneID 18634) #1 — GFP, % of control = 63.2; viability (ATP), % of control = 69.5
Pex7 (GeneID 18634) #2 — GFP, % of control = 68.1; viability (ATP), % of control = 54.9
Pex7 (GeneID 18634) #3 — GFP, % of control = 49.6; viability (ATP), % of control = 55.4
Rptor (GeneID 74370) #1 — GFP, % of control = 103; viability (ATP), % of control = 58.1
Rptor (GeneID 74370) #2 — GFP, % of control = 106; viability (ATP), % of control = 55.3
Rptor (GeneID 74370) #3 — GFP, % of control = 83.7; viability (ATP), % of control = 116
Dcakd (GeneID 68087) — GFP, % of control = 128 (active); viability (ATP), % of control = 96.3
Cyp1b1 (GeneID 13078) #1 — GFP, % of control = 55.7; viability (ATP), % of control = 59
Cyp1b1 (GeneID 13078) #2 — GFP, % of control = 110; viability (ATP), % of control = 62.4
Cyp1b1 (GeneID 13078) #3 — GFP, % of control = 85.3; viability (ATP), % of control = 69.7
Atp5mf (GeneID 57423) #1 — GFP, % of control = 78.8; viability (ATP), % of control = 54
Atp5mf (GeneID 57423) #2 — GFP, % of control = 56.9; viability (ATP), % of control = 73.3
Atp5mf (GeneID 57423) #3 — GFP, % of control = 48.2; viability (ATP), % of control = 71.6
2210408I21Rik (GeneID 72371) #1 — GFP, % of control = 86.5; viability (ATP), % of control = 90
2210408I21Rik (GeneID 72371) #2 — GFP, % of control = 37.8; viability (ATP), % of control = 53.2
2210408I21Rik (GeneID 72371) #3 — GFP, % of control = 119; viability (ATP), % of control = 86.3

Next part (3 carried over from the part before).
2210408I21Rik (GeneID 72371) #1 — GFP, % of control = 86.5; viability (ATP), % of control = 90
2210408I21Rik (GeneID 72371) #2 — GFP, % of control = 37.8; viability (ATP), % of control = 53.2
2210408I21Rik (GeneID 72371) #3 — GFP, % of control = 119; viability (ATP), % of control = 86.3
Dab2 (GeneID 13132) #1 — GFP, % of control = 104; viability (ATP), % of control = 71.3
Dab2 (GeneID 13132) #2 — GFP, % of control = 195 (active); viability (ATP), % of control = 59.9
Dab2 (GeneID 13132) #3 — GFP, % of control = 103; viability (ATP), % of control = 95
Dab2 (GeneID 13132) #4 — GFP, % of control = 98.1; viability (ATP), % of control = 85.6
Dab2 (GeneID 13132) #5 — GFP, % of control = 88; viability (ATP), % of control = 83.5
Babam2 (GeneID 107976) #1 — GFP, % of control = 125 (active); viability (ATP), % of control = 97.2
Babam2 (GeneID 107976) #2 — GFP, % of control = 84.6; viability (ATP), % of control = 63.4
Babam2 (GeneID 107976) #3 — GFP, % of control = 105; viability (ATP), % of control = 127
Dlec1 (GeneID 320256) #1 — GFP, % of control = 64.4; viability (ATP), % of control = 55.6
Dlec1 (GeneID 320256) #2 — GFP, % of control = 102; viability (ATP), % of control = 68.5
Dlec1 (GeneID 320256) #3 — GFP, % of control = 76.3; viability (ATP), % of control = 73.4
